Reference: PubChem BioAssay AID1347076 (National Center for Advancing Translational Sciences (NCATS), 2019)
Hit rate of the full screen: of about 400,000 compounds, about 13,000 (3.2%) were called active. The inconclusive results got no clear call from the source; some entries with a clear call stand among them for comparison. Calls come from the whole dose curve; as a rule, active = well fitted cell-killing curve with a large enough effect; inconclusive = small, poorly fitted or top-dose-only effect, or effect the other way; inactive = flat fitted curve, though single readings scatter. A potency beside an inconclusive call is a rough fit, not a confirmed value.

Experiment: qHTS assay for MDR1-selective chemotherapeutics: Primary screen using the drug-selected MDR subline cells KB-V1; note: nearly all actives have a fitted effect of over 60% in size
Settings: KB-V1 MDR cells viability, CellTiter-Glo, 72 h; activity change, negative = cytotoxicity: at 46.1 µM (top of the series)
Method in brief: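 KB-V1, DMEM (no phenol red) + 10% FBS; cpd pin-transferred, titration series; 72 h, 37 degrees C; CellTiter-Glo, luminescence. Data normalized, curve-fit.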
% is set by controls: 0 for no effect and ±100 for the full control effect; potency is the fitted concentration of half-maximal effect.

Compound | Potency | activity change, negative = cytotoxicity
O=[N+]([O-])c1ccc(-c2ccc(S(=O)(=O)N3CCOCC3)cc2)cc1 | inactive | 
O=S(=O)(NC(=NCc1ccccc1)c1ccccc1)c1ccccc1 | inconclusive: 32.6 µM [rising, single point] | 
Cc1ccc(CN2CCCOCCS2(=O)=O)cc1 | inconclusive: 29.1 µM [cytotoxic, single point] | 
COc1cccc(CNS(=O)(=O)c2ccc3c(c2)CCN3C(=O)C2CC2)c1 | inconclusive: 18.4 µM [cytotoxic, single point] | 
CS(=O)(=O)c1ccc(Cl)c(NC(=O)c2ccc(-n3cncn3)c([N+](=O)[O-])c2)c1 | inconclusive: 18.4 µM [rising, single point] | 
CC1=C(c2ccc(C)c(C)c2)S(=O)(=O)N(Cc2ccc(C(=O)NC(C)c3ccccc3)cc2)C1=O (stereo not given) | inactive | 
Cc1ccccc1Cc1c(C)nc2nc(SCC(=O)NCCc3ccc(Cl)cc3)nn2c1C | inactive | 
COc1cccc(NC(=O)[C@@H]2CCCN2C(=O)C2CCN(S(=O)(=O)c3ccc(C)cc3)CC2)c1 | active: 18.4 µM | 
COc1ccc(N(CC(=O)Nc2cc(C)ccc2C)S(=O)(=O)c2ccc(OC)c(OC)c2)cc1 | inactive | 
Cn1c(=O)c2c(nc(Oc3ccccc3)n2Cc2c(Cl)cccc2Cl)n(C)c1=O | inconclusive: 10.3 µM [rising, partial curve, poor fit] | 
COc1cccc(C(=O)Nn2cnnc2)c1OC | inactive | 
O=C(NC(=S)N1CCN(c2ccc([N+](=O)[O-])cc2Cl)CC1)c1ccco1 | active: 20.6 µM | 
O=C(COC(=O)c1ccc(F)cc1F)Nc1ccc(Cl)cn1 | inconclusive: 29.1 µM [rising, single point] | 
COc1ccc(-c2noc(CNC(=O)Nc3ccc(F)cc3)n2)cc1 | inconclusive: 29.1 µM [cytotoxic, single point] | 
Cc1ccc(C(=O)c2cc([N+](=O)[O-])ccc2N2CCCCC2)cc1 | inconclusive: 0.461 µM [cytotoxic, full curve, poor fit] | 
Cc1cccc(NC(c2ccc(O)cc2)c2ccc3ccc(C)nc3c2O)n1 (stereo not given) | inconclusive: 29.1 µM [cytotoxic, single point] | 
NC(=O)c1ccc(=O)n(C2OC(CO)C(O)C2O)c1 (stereo not given) | inconclusive: 29.1 µM [cytotoxic, single point] | 
CCOc1ccc(NC(=O)CN2C(=O)COc3ccc(S(=O)(=O)NC4CCCC4)cc32)cc1 | inconclusive: 23.1 µM [rising, partial curve, poor fit] | 
COc1ccc(-c2noc(CCC(=O)Nc3cc(Cl)c(OC)cc3OC)n2)cc1 | inactive | 
O=C(COC(=O)c1ccc(Br)cc1)NCc1ccc(F)cc1 | inconclusive: 3.26 µM [rising, partial curve, poor fit] | 
COc1cccc(C2C3=C(N=C4SCC(=O)N42)c2ccccc2CC3)c1OC (stereo not given) | inactive | 
CCN(CC(=O)Nc1ccccc1OC)C(=O)c1cc(S(=O)(=O)N2CCCCCC2)ccc1OC | inconclusive: 16.4 µM [cytotoxic, single point] | 
CC(C)[C@H](NS(=O)(=O)c1cccc(Cl)c1)C(=O)OCC(=O)N1CCN(c2ccccc2)CC1 | active: 7.31 µM | 
CC12CCC(=O)N1C(C(=O)NNC(=O)c1ccccc1Cl)CS2 (stereo not given) | inconclusive: 6.51 µM [rising, partial curve] | 

Compound | Potency | activity change, negative = cytotoxicity
CCCCCc1c(-c2cccc(OC)c2)ncn1CCc1ccccc1OC | active: 16.4 µM | 
O=[N+]([O-])c1ccccc1S(=O)(=O)N1CCN(c2ccccn2)CC1 | inactive | 
CC(C)C1OC2c3cccc4cccc(c34)C2N1c1ccccc1 (stereo not given) | inconclusive: 23.1 µM [cytotoxic, single point] | 
C[C@H]1CN(S(=O)C(C)(C)C)[C@@H](CCO)/C1=C\CCO (stereo not given in full) | inactive | 
COc1cc(OC)cc(C(=O)NCC2CCCN(C(=O)c3oc(C)cc3C)C2)c1 (stereo not given) | inconclusive: 6.51 µM [cytotoxic, partial curve] | 
O=C1CSC(=S)N1N=Cc1ccc(Cl)cc1Cl | inconclusive: 2.91 µM [cytotoxic, partial curve, poor fit] | 
CCC(CC)c1nnc(NC(=O)C2CC(=O)N(c3ccc4c(c3)OCCO4)C2)s1 (stereo not given) | active: 20.6 µM | 
CCCN(CCC)S(=O)(=O)c1ccc(C(=O)Nc2nnc(COC)o2)cc1 | inactive | 
CC1CCN(CCCCOc2ccccc2[N+](=O)[O-])CC1 | inactive | 
COC(=O)C(C)n1nnc2sc(-c3ccccc3)cc2c1=O (stereo not given) | inactive | 
C[C@@H](C(=O)NCc1ccccn1)[C@H]1C[C@]1(C)[C@H](NC(=O)OCc1ccccc1)c1ccccc1 | inconclusive: 29.1 µM [cytotoxic, single point] | 
N#C/C(=C\c1cccc([N+](=O)[O-])c1)C(=O)NCc1ccc(Cl)cc1 | inconclusive: 18.4 µM [cytotoxic, single point] | 
Cc1nc2cc(C(=O)OCC(=O)NC(C)C(C)C)ccc2n1-c1ccccc1 (stereo not given) | inconclusive: 13 µM [cytotoxic, partial curve] | 
Oc1c(Cl)cc(Cl)c(Cl)c1Cc1c(O)c(Cl)cc(Cl)c1Cl | active: 5.17 µM | 
CC1=C(C(=O)OCc2ccccc2)C(c2ccccc2-c2ccccc2)NC(=O)N1CCCCCC(=O)O (stereo not given) | inconclusive: 0.0146 µM [cytotoxic, full curve] | 
COc1ccc2c(c1)O/C(=C\c1ccccc1O)C2=O | inactive | 
O=C(COc1ccccc1Cl)N(Cc1cccs1)C1CCS(=O)(=O)C1 (stereo not given) | inconclusive: 20.6 µM [cytotoxic, partial curve, poor fit] | 
Cc1c(Cl)cccc1NC(=O)Nc1nnc(N(C)Cc2ccccc2)s1 | inconclusive: 29.1 µM [cytotoxic, single point] | 
O=C(C1CCC(=O)N(C2CCCC2)C1)N1CCN(Cc2cccc(F)c2)CC1 (stereo not given) | inconclusive: 0.517 µM [cytotoxic, full curve, poor fit] | 
CC(C)(C)C1CCC(=NNC(=O)c2ccco2)CC1 (stereo not given) | inactive | 
COc1ccccc1OCC(=O)Nc1ccccc1C(=O)NCc1ccco1 | inconclusive: 6.51 µM [cytotoxic, partial curve] | 
Cc1ccc2nc(-c3cccc(Cl)c3)c(Cc3ccccc3)n2c1 | active: 20.6 µM | 
CC(C)CNc1nc(=S)nc(N(C)C)[nH]1 | inconclusive: 35.5 µM [cytotoxic, single point] | 
O=C(Cc1cc(=O)oc2cc(O)ccc12)NC(Cc1ccc(Cl)cc1)C(=O)O (stereo not given) | inconclusive: 32.6 µM [rising, single point] | 

Compound | Potency | activity change, negative = cytotoxicity
COc1ccc(OC)c(S(=O)(=O)N2c3ccccc3CC2C)c1 (stereo not given) | inconclusive: 16.4 µM [cytotoxic, partial curve, poor fit] | 
Cc1ccc(C)c(OCC(=O)Nc2ccc(S(=O)(=O)Nc3onc(C)c3C)cc2)c1C | inactive | 
CC(NCc1ccc(S(N)(=O)=O)cc1)C(=O)Nc1cc([N+](=O)[O-])ccc1Cl (stereo not given) | inactive | 
Cc1c(Cl)c([N+](=O)[O-])nn1Cc1ccc(C(=O)N/N=C\c2ccccn2)o1 | inconclusive: 16.4 µM [cytotoxic, single point] | 
COc1ccccc1OCc1cc(-c2ccccc2)no1 | inconclusive: 20.6 µM [rising, partial curve, poor fit] | 
COC(=O)c1c(C)[nH]c(C(=O)C(C)OC(=O)c2c(C)noc2C)c1C (stereo not given) | inconclusive: 18.4 µM [cytotoxic, single point] | 
CCN(CCCNC(=O)CSc1cc(=O)n(CC)c2ccccc12)c1cccc(C)c1 | inconclusive: 18.4 µM [cytotoxic, partial curve, poor fit] | 
CCOC(=O)/C(C#N)=C1\Nc2ccccc2N=C1N(CC(C)C)CC(C)C |  | inconclusive: -27.7%
CC(Oc1ccc(F)cc1)C(=O)Nc1ccc(N2CCOCC2)cc1N1CCOCC1 (stereo not given) | inactive | 
O=C(Nc1ccc(Nc2ccccc2)cc1)Nc1ccccc1Cl | inconclusive: 2.59 µM [rising, full curve] | 
O=C(NCc1cccnc1)/C(=C\c1ccc(-c2cccc(Cl)c2)o1)S(=O)(=O)c1ccccc1 | active: 4.11 µM | 
Cc1cccc(N2CC(C(=O)Nc3cccc(S(=O)(=O)N4CCCCC4)c3)CC2=O)c1C (stereo not given) |  | inconclusive: -6.37%
Cc1ccc(S(=O)(=O)N(C)C[C@@H]2Oc3ccc(NC(=O)Nc4cccc5ccccc45)cc3C(=O)N([C@H](C)CO)C[C@H]2C)cc1 | inconclusive: 2.31 µM [rising, partial curve, poor fit] | 
C=CCNC(=O)c1nn2cccnc2c1Cl | inconclusive: 18.4 µM [rising, partial curve] | 
COc1cccc(-n2c(C)c3c(OC)cccc(=O)c3c2C)c1 | inconclusive: 9.2 µM [cytotoxic, partial curve, poor fit] | 
CS(=O)(=O)c1ccc2nc(NC(=O)Nc3ccccc3F)sc2c1 | inactive | 
CC(Oc1cccc(NC(=O)c2cccs2)c1)C(=O)c1ccccc1 (stereo not given) | inconclusive: 29.1 µM [cytotoxic, single point] | 
CCC(C)c1ccccc1NC(=O)c1cc(C)no1 (stereo not given) | inconclusive: 20.6 µM [rising, single point] | 
Cc1ccc(S(=O)(=O)N2CCCOC2CNC(=O)C(=O)NCCN2CCOCC2)cc1 (stereo not given) | inactive | 
COc1ccc(NC(=O)c2c(NCc3sccc3C)sc3c2CCCCC3)c(OC)c1 | inactive | 
O=C(c1cc(-c2cccs2)nc2ccccc12)N1CCN(S(=O)(=O)c2ccccc2)CC1 | inconclusive: 10.3 µM [cytotoxic, partial curve, poor fit] | 
CC(C)c1ccc(NC2CCCN(C(=O)c3ccc(N4CCOCC4)cc3)C2)cc1 (stereo not given) | inconclusive: 7.31 µM [cytotoxic, partial curve] | 

Full records, looked up by structure.
O=C(NCc1cccnc1)/C(=C\c1ccc(-c2cccc(Cl)c2)o1)S(=O)(=O)c1ccccc1 is listed with Potency: active: 4.11 µM
CCN(CCCNC(=O)CSc1cc(=O)n(CC)c2ccccc12)c1cccc(C)c1 is listed with Potency: inconclusive: 18.4 µM [cytotoxic, partial curve, poor fit]
COc1ccccc1OCc1cc(-c2ccccc2)no1 is listed with Potency: inconclusive: 20.6 µM [rising, partial curve, poor fit]
CCC(C)c1ccccc1NC(=O)c1cc(C)no1 (stereo not given) is listed with Potency: inconclusive: 20.6 µM [rising, single point]
